Publication PMC11560026
Results are given in words; binding and its absence hold for the method and conditions named. Binding seen in cells or lysates may run through a third protein. Some results given as binding are weak or reduced against the parent protein; the word gives no strength. For some assays here: Sequences can lack the tags named with a protein.

Chains of the proteins cited; added tags and fusions are not shown.
UniProt Q96B97: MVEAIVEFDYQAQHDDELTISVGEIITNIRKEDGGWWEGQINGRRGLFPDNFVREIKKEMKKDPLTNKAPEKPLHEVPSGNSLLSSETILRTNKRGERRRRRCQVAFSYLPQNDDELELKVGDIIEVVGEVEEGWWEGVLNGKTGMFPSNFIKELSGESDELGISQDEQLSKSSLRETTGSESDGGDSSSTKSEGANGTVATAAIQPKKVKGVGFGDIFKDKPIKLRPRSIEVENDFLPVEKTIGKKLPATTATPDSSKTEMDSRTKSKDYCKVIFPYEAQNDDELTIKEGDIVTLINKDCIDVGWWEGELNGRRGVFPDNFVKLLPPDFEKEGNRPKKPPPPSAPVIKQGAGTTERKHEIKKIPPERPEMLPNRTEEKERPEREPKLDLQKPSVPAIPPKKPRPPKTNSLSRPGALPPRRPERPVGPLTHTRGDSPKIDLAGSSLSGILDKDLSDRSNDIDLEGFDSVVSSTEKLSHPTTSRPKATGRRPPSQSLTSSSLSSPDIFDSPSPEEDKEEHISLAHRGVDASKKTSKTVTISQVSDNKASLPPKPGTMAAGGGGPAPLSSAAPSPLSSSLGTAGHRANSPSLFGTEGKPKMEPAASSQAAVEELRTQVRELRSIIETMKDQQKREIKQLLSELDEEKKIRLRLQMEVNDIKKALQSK
UniProt Q14258: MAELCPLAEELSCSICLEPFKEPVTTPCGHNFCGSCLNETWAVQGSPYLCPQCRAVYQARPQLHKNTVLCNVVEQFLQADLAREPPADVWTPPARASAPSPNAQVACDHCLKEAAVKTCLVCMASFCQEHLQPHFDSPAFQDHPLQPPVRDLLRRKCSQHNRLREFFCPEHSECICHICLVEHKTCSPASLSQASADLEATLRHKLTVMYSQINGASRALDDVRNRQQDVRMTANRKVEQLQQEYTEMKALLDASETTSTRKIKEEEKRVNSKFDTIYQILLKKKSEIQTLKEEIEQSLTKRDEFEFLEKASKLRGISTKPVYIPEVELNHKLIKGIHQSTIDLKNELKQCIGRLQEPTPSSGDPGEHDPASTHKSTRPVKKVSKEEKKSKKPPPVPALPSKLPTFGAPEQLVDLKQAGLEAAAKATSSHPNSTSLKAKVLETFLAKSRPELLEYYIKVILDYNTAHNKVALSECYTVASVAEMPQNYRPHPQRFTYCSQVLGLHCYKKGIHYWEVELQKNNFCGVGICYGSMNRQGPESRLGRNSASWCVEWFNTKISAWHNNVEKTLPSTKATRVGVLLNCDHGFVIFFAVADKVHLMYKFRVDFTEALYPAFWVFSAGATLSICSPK

Experiments:
[1] = target: SH3 domain-containing kinase-binding protein 1 (SH3KBP1), endogenous in HEK-293T (human (endogenous in HEK-293T)) (UniProt Q96B97); test: co-IP; HEK-293T transfected with one tagged protein, the partner endogenous; Western blot; Fig 9D cells treated with DMSO or Baf-A1 for 12 h before harvest
[2] = target: T1, Flag-tagged RIG-I (UniProt O95786); test: as above
T1 sequence: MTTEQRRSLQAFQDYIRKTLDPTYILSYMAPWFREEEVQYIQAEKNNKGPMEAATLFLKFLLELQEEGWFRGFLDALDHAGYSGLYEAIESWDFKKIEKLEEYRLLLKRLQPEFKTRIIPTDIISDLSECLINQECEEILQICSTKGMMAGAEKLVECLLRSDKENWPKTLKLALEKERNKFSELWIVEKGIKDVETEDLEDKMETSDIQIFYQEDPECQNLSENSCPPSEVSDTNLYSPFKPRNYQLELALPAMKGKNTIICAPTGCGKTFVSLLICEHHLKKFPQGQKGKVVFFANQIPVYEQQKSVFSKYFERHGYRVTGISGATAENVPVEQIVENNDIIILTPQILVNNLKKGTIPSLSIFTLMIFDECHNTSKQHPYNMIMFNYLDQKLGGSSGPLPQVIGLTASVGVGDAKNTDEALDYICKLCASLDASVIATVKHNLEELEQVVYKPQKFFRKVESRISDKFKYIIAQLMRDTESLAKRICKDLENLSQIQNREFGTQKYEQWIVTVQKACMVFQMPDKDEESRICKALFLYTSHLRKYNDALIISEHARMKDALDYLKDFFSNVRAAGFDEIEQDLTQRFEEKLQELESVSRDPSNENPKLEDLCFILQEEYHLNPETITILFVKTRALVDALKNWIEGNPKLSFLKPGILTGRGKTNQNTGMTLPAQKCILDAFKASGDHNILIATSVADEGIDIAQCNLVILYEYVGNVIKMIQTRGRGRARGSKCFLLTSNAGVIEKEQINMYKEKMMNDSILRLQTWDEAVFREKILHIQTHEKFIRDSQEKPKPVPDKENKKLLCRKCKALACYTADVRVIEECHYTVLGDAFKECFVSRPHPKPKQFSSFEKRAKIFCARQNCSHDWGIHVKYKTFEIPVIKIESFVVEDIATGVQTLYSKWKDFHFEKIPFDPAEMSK

## HA-tagged TRIM25, full length (from UniProt Q14258 1-630)
[1]
  binding: binds

## SH3 domain-containing kinase-binding protein 1 (SH3KBP1), endogenous in HEK-293T (from UniProt Q96B97 1-665)
[2]
  binding: no binding
